Experimental data from article PMC11749114.
Results are given in words; binding and its absence hold for the method and conditions named. Binding seen in cells or lysates may run through a third protein. Binding calls can cover weak binding; strength is not graded here. Where a sequence is shown, tags or fusion partners need not be part of it.

How the values were obtained:
[1] = molecular target: T1, Flag-tagged wild-type DAZL (Deleted in Azoospermia-like) (human) (UniProt Q92904); experiment: co-IP; antibodies against PABP or Flag-tagged DAZL; HEK293FT cells overexpressing WT or truncated DAZL; PABP band density normalised to Flag density (ImageJ, n = 3)
T1 sequence: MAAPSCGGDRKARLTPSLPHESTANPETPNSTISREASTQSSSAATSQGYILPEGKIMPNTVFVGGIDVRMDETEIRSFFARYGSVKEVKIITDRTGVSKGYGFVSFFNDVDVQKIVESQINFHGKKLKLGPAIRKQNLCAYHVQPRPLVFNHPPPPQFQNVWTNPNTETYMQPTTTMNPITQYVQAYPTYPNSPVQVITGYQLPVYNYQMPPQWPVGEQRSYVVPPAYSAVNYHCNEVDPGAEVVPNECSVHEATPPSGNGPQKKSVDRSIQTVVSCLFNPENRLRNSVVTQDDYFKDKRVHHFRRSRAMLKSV

[2] = molecular target: T2, Flag-tagged truncated DAZL, c.808C>T (p.Arg270*) (human) (UniProt Q92904); experiment: as above
T2 sequence: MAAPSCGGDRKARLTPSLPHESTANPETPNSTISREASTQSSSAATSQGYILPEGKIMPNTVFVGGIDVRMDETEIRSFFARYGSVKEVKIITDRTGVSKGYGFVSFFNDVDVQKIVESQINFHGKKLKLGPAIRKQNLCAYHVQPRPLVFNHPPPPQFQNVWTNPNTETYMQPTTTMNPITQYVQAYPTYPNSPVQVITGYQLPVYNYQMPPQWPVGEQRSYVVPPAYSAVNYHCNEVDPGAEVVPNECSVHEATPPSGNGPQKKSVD

poly(A)-binding protein (PABP) (human (endogenous in HEK293FT))
binding [1]: binds | binding [2]: binds
